From article PMC5386783 (Nature medicine, 2016)

System: ZIKV
Experiment: ZIKV production from SNB-19 cells, focus-forming unit assay on Vero cells
Assay type: cell-based
Conditions: Zika virus, SNB-19, read-out: IC50, ZIKV production

CC[C@H](CO)Nc1nc(NCc2ccccc2)c2ncn(C(C)C)c2n1 [Seliciclib]
IC50: 24 nM
